Reference: patent EP2050458A1, “IL24 for inducing hyperproliferative or autoimmune cell death” (INSTITUT NATIONAL DE LA SANTE ET DE LA RECHERCHE MEDICALE …, priority 2007, dated 2009)
At least one compound was matched to its structure with a doubt left.

Experiments:
Format in all cases: cell-based, human
p53 = p53 expression by western blot and quantitative PCR in CLL cells; conditions: IL2-cultured CLL cells; TG dose response
IL24 receptor = experiment: SHP-1 association with IL24 receptor chains (immunoprecipitation and western blot) in CLL cells; conditions: cells incubated for 10 minutes
CLL B-cells = experiment: Cell cycle analysis by Propidium Iodide staining and FACS
Procedure: For apoptosis studies, cells were stained either with the Apo 2.7-PE mAb (Beckman-Coulter, Villepinte, France) on ice for 15 min, washed and resuspended on 300 µl of PBS 1X supplemented with 0,1% BSA or with the Annexin V-FITC apoptosis detection kit (Becton Dickinson Biosciences, Le-Pont-de-Claix, France), 1x10^5 cells in 100 µl 1X binding buffer were stained with 5 µl of Annexin V-FITC and 5 µl Propidium Iodide (PI) in the dark for 15 min at room temperature (RT). 400 µl of 1X binding buffer was added before fluorescence-activated cell sorted (FACS) analysis. For cell cycle analysis 1x10^6 cells were washed with cold PBS1X and resuspended in 1ml EtOH 70% and kept on ice for at least 10 min. Cells were then centrifuged and the pellet resuspended in 1ml PBS 1X + RNAse (40 µg) Saint-Quentin Fallavier, France) + Propidium Iodide (18 µl) at room temperature. […]
Fluorescence was measured using a FACScan flow cytometer (BD Biosciences), and data analysis was performed using CellQuest software (BD Biosciences).
It was next determined whether the inhibition of thymidine incorporation by B-cells reflected cell cycle block and/or apoptosis. […] The respective percentages of hypodiploid (apoptotic) cells, and of cells in G0-G1, S and G2-M cell cycle phase, and finally of hyperdiploid cells were evaluated (M1 to M4 populations respectively in figure 3a). […]

P-stat3 = experiment: Stat3 phosphorylation (Phospho-Y705 stat3) by western blot and immunostaining in CLL cells; conditions: IL2-cultured CLL cells
Procedure: For pervanadate experiments, fresh CLL cells were preincubated or not with IL2 overnight, then incubated or not with pervanadate 25 µM during 5 min and stimulated or not with IL24 for 10 min and lysed as previously described. Blots were hybridyzed with anti phospho-Tyr 705-STAT3 (B-7) MAb (Tebu-bio), dehybridyzed and reblotted with anti STAT3 MAb (BD Transduction Laboratories).
Stat3 was strongly and stably phosphorylated in cells incubated overnight with IL2 as evidenced by hybridization with an anti Phospho-Y705 stat3 MAb. In contrast, phospho(P)-stat5 disappeared and total stat5 diminished in the cytosol of cells incubated overnight with IL2, presumably due to dimerization and translocation to the nucleus (Paukku et al. Cytokine Growth Factor Rev. 2004. 6:435-55).
Cells were therefore incubated or not for 5 min with […] pervanadate (PV), an inhibitor of protein tyrosine phosphatase activity (Heffetz and Bushkin H. J Biol Chem. 1990. 265:2896-902) and stimulated 10 min with IL24 on cells preincubated or not with IL2. Cytospin and western blot experiments were performed.
Troglitazone (TG) is an activator of protein-tyrosine phosphatase (PTP)-1B that reduced P-Y705-stat3 and promoted apoptosis in human primary gliomas (Akasaki et al. J Biol Chem. 2005. 281:6165-74). TG was therefore used to determine if it is able to stimulate p53 expression and apoptosis in CLL. […]

SMILES: Cc1c(C)c2c(c(C)c1O)CCC(C)(COc1ccc(CC3SC(=O)NC3=O)cc1)O2 (centres unmarked) [TG, Troglitazone]
- p53 protein (p53): increase
- association of SHP-1 to the IL24 receptor (IL24 receptor): not
- cells in G0/G1 (CLL B-cells; IL2-stimulated cells, cell population affected): predominantly affected
- death of IL2-stimulated cells (CLL B-cells; cell cycle analysis, annexin staining and cell count): induced the death
- dephosphorylation of P-stat3 (P-stat3): dose response dephosphorylation
